Measured values reported in article PMC8233286.
Numbering of substitutions follows the chain as printed. Results are given in words; binding and its absence hold for the method and conditions named. Binding seen in cells or lysates may run through a third protein. A yes stands for co-enrichment or nearness to the bait. Other partners may have been found. For part of these data: A no says only that the protein was not detected with the bait. For part of these data: Where a sequence is shown, tags or fusion partners need not be part of it. Each block holds one molecule with its values, some of them ahead of it.

The chains behind the UniProt entries cited, without tags or fusion partners. Residues count along the entry.
UniProt P31946: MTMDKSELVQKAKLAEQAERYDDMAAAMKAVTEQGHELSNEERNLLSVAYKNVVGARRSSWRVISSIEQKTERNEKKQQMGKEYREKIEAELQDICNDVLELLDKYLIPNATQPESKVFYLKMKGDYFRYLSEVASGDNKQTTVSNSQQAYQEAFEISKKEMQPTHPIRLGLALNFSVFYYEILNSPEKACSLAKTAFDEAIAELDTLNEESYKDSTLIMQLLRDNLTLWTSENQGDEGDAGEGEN
UniProt P62258: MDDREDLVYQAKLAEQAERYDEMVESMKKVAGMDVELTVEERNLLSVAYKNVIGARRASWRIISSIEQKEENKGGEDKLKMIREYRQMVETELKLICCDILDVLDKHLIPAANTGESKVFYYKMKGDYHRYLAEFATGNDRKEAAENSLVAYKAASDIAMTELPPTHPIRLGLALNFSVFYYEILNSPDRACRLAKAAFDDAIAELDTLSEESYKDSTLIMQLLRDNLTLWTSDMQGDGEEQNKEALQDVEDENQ
UniProt Q92538: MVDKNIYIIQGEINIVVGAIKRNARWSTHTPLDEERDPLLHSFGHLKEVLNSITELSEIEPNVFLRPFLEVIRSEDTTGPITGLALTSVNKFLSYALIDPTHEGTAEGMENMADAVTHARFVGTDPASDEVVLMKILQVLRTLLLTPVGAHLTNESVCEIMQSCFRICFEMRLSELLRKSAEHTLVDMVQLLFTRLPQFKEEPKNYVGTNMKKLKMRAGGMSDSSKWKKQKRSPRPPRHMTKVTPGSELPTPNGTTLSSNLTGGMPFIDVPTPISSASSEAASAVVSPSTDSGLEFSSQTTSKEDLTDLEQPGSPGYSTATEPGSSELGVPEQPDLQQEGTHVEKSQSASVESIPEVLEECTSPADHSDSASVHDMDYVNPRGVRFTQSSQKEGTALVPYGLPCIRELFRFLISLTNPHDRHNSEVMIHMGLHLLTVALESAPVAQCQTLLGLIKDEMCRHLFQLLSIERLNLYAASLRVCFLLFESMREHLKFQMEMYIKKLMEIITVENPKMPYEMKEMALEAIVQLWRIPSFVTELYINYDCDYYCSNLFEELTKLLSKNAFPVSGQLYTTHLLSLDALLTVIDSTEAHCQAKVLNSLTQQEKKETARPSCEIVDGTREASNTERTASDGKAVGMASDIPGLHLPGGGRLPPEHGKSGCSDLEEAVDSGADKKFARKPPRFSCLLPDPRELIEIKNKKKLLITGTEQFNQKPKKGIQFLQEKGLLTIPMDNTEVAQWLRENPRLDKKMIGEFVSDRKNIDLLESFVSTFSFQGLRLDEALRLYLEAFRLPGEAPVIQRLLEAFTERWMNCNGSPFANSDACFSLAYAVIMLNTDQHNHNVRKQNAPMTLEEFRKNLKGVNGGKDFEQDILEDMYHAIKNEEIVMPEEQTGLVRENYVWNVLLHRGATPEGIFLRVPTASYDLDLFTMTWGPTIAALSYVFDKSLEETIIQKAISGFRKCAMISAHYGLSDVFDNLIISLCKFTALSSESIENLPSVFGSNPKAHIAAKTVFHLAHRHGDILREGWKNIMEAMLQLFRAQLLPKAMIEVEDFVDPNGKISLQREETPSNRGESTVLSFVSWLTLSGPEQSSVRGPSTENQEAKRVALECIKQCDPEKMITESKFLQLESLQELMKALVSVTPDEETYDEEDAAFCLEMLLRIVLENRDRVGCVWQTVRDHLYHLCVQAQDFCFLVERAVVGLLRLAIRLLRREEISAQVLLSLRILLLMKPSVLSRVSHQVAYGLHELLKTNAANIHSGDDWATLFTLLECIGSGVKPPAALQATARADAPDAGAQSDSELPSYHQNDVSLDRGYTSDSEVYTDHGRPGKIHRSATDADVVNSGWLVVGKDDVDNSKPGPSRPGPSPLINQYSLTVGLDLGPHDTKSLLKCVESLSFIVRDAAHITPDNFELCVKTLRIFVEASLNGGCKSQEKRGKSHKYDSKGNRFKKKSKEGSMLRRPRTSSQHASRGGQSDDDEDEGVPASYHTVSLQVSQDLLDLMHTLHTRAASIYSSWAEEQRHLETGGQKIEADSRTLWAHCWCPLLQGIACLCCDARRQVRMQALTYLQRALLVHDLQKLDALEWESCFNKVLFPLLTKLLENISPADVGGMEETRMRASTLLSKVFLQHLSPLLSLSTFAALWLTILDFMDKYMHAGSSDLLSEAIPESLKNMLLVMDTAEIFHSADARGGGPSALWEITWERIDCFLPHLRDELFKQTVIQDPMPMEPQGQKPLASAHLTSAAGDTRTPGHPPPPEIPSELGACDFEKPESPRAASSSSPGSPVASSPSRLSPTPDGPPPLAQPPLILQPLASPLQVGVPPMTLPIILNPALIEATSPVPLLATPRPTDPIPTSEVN
UniProt P46459: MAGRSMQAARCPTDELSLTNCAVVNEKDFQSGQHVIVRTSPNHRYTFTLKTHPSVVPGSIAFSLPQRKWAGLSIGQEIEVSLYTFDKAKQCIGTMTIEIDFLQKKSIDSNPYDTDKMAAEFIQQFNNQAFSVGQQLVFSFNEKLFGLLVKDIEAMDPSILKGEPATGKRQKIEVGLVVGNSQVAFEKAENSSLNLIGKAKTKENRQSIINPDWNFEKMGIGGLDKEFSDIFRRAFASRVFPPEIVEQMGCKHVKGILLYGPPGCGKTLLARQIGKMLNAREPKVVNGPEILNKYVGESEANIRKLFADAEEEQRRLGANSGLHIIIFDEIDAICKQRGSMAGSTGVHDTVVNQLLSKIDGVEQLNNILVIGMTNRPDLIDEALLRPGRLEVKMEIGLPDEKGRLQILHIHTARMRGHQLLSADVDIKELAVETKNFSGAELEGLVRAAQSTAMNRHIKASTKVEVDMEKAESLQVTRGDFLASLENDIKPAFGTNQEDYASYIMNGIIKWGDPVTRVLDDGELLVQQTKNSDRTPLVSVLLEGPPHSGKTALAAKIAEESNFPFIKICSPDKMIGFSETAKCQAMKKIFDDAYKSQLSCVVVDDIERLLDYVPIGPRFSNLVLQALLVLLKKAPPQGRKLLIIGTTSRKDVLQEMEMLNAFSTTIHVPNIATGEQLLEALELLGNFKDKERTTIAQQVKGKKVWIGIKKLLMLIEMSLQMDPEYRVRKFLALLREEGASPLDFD
UniProt O75396: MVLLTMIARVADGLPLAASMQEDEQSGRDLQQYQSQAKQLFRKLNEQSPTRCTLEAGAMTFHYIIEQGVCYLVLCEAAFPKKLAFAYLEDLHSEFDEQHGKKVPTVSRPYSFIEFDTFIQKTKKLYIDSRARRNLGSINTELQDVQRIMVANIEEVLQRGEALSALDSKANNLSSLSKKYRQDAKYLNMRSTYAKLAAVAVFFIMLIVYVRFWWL
UniProt P27824, residues 21-592: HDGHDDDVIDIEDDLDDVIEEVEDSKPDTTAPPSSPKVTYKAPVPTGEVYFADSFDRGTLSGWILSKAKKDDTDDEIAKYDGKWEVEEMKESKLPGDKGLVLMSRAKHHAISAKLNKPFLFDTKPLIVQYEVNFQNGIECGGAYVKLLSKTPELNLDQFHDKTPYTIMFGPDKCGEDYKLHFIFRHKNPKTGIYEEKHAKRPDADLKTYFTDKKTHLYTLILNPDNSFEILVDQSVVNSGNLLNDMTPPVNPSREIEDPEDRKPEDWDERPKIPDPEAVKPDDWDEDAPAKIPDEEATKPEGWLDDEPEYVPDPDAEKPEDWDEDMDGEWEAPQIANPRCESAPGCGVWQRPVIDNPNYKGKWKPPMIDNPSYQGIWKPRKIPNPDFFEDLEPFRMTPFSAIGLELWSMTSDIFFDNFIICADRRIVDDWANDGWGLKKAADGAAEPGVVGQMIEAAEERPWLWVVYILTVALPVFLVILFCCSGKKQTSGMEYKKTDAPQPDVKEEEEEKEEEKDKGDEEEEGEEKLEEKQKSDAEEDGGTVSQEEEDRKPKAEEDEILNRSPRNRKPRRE
UniProt P53621: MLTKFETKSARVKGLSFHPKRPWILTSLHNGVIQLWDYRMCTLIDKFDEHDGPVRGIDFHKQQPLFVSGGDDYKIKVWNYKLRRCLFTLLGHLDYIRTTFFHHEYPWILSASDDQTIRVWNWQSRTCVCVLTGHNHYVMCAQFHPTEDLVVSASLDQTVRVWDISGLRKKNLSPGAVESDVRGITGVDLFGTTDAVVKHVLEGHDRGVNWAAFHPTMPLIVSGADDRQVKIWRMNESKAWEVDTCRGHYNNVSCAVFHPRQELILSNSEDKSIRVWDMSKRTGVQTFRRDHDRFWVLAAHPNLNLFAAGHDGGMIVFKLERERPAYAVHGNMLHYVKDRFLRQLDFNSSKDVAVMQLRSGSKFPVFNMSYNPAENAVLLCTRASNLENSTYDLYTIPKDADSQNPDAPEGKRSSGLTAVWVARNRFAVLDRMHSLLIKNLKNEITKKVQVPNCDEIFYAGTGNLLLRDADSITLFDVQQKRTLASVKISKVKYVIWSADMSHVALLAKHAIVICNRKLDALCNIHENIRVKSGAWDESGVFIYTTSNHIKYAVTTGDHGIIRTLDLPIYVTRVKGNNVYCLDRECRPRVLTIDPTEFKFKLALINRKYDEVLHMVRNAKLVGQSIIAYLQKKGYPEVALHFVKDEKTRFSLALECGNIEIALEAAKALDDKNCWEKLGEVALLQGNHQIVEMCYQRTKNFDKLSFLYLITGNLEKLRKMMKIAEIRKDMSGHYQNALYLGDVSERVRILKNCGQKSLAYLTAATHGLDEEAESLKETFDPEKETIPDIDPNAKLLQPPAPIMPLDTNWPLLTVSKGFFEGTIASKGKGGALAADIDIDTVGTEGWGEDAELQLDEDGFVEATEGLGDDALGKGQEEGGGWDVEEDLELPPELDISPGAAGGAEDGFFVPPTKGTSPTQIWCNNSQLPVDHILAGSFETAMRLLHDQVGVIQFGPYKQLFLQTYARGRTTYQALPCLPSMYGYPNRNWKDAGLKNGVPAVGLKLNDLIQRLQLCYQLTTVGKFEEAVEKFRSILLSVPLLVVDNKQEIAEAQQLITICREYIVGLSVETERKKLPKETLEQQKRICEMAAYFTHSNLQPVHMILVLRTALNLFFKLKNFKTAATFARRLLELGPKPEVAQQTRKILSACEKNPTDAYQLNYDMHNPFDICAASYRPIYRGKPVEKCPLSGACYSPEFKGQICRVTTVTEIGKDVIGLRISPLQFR

Assays:
[1] = target: T1, miR2_W538S (murine iRhom2 with W538S in iCERES), in HEK293 cells (mouse) (UniProt Q80WQ6); assay: affinity purification with mass spectrometry; anti-HA co-IP from HEK293 cells stably expressing wt iRhom2, miR2_W538S or GFP (control); beads washed three times with lysis buffer and three times without detergent, on-bead trypsin digest, label-free quantification; hit: p-value < 0.01 and > fourfold over GFP
T1 sequence: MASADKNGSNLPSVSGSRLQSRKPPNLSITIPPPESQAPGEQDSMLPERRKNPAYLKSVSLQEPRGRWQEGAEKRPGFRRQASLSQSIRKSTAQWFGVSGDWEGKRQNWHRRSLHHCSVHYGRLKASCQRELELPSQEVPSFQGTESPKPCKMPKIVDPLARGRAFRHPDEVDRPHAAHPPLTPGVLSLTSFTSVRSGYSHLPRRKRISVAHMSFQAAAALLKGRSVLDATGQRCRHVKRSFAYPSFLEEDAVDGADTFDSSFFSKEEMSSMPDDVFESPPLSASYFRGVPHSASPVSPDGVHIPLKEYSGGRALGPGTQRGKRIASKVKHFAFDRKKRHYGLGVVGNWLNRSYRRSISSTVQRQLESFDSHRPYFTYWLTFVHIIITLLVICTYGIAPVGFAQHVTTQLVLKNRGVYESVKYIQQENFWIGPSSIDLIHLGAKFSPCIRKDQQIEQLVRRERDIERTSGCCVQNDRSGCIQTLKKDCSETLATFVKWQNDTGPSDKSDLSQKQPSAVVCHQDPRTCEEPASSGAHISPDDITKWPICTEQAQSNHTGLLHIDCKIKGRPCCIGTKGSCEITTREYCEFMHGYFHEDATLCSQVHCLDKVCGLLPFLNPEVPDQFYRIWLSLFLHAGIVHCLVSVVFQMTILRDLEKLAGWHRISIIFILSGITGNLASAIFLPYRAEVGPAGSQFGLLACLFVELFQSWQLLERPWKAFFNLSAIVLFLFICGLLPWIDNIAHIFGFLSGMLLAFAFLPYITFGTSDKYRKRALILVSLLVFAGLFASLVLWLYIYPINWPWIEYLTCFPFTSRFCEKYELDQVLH

[2] = target: T2, murine wt_iRhom2 (wild-type) construct with 3xHA tag, in HEK293 cells (mouse) (UniProt Q80WQ6); assay: as above
T2 sequence: T1 sequence with S538W

binding [1]: binds
binding [2]: binds
Molecule: 14-3-3 beta/alpha (YWHAB), endogenous in HEK293 cells (from UniProt P31946 1-246)

binding [1]: binds
binding [2]: binds
Molecule: 14-3-3 epsilon (YWHAE), endogenous in HEK293 cells (from UniProt P62258 1-255)

binding [1]: no binding
binding [2]: binds
Molecule: GBF1, endogenous in HEK293 cells (from UniProt Q92538 1-1860)

binding [1]: no binding
binding [2]: binds
Molecule: NSF, endogenous in HEK293 cells (from UniProt P46459 1-744)

binding [1]: binds
binding [2]: binds
Molecule: SEC22b, endogenous in HEK293 cells (from UniProt O75396 1-215)

binding [2]: binds
Molecule: calnexin, endogenous in HEK293 cells (from UniProt P27824 21-592)

binding [1]: binds
binding [2]: binds
Molecule: coatomer subunit COPA, endogenous in HEK293 cells (from UniProt P53621 1-1224)

binding [1]: binds
binding [2]: binds
B1: YWHAQ (printed as 14-3-3 zeta), endogenous in HEK293 cells (protein, UniProt P27348 1-245)
chain: MEKTELIQKAKLAEQAERYDDMATCMKAVTEQGAELSNEERNLLSVAYKNVVGGRRSAWRVISSIEQKTDTSDKKLQLIKDYREKVESELRSICTTVLELLDKYLIANATNPESKVFYLKMKGDYFRYLAEVACGDDRKQTIDNSQGAYQEAFDISKKEMQPTHPIRLGLALNFSVFYYEILNNPELACTLAKTAFDEAIAELDTLNEDSYKDSTLIMQLLRDNLTLWTSDSAGEECDAAEGAEN

binding [1]: no binding
binding [2]: binds
B2: GOSR1, endogenous in HEK293 cells (protein, UniProt O95249 1-250)
chain: MAAGTSSYWEDLRKQARQLENELDLKLVSFSKLCTSYSHSSTRDGRRDRYSSDTTPLLNGSSQDRMFETMAIEIEQLLARLTGVNDKMAEYTNSAGVPSLNAALMHTLQRHRDILQDYTHEFHKTKANFMAIRERENLMGSVRKDIESYKSGSGVNNRRTELFLKEHDHLRNSDRLIEETISIAMATKENMTSQRGMLKSIHSKMNTLANRFPAVNSLIQRINLRKRRDSLILGGVIGICTILLLLYAFH

binding [2]: binds
B3: syntaxin 7 (STX7), endogenous in HEK293 cells (protein, UniProt O15400 1-261)
chain: MSYTPGVGGDPAQLAQRISSNIQKITQCSVEIQRTLNQLGTPQDSPELRQQLQQKQQYTNQLAKETDKYIKEFGSLPTTPSEQRQRKIQKDRLVAEFTTSLTNFQKVQRQAAEREKEFVARVRASSRVSGSFPEDSSKERNLVSWESQTQPQVQVQDEEITEDDLRLIHERESSIRQLEADIMDINEIFKDLGMMIHEQGDVIDSIEANVENAEVHVQQANQQLSRAADYQRKSRKTLCIIILILVIGVAIISLIIWGLNH

binding [2]: binds
B4: syntaxin 6 (STX6), endogenous in HEK293 cells (protein, UniProt O43752 1-255)
chain: MSMEDPFFVVKGEVQKAVNTAQGLFQRWTELLQDPSTATREEIDWTTNELRNNLRSIEWDLEDLDETISIVEANPRKFNLDATELSIRKAFITSTRQVVRDMKDQMSTSSVQALAERKNRQALLGDSGSQNWSTGTTDKYGRLDRELQRANSHFIEEQQAQQQLIVEQQDEQLELVSGSIGVLKNMSQRIGGELEEQAVMLEDFSHELESTQSRLDNVMKKLAKVSHMTSDRRQWCAIAILFAVLLVVLILFLVL

binding [1]: binds
binding [2]: binds
B5: FRMD8, endogenous in HEK293 cells (protein, UniProt Q9BZ67 1-464)
chain: MDGTEGSAGQPGPAERSHRSSVSSVGARAADVLVYLADDTVVPLAVENLPSLSAHELHRAVREVLQLPDIALDVFALWLVSPLLEVQLKPKHQPYKLGRQWPELLLRFTSAPDDDVAMDEPFLQFRRNVFFPKRRELQIHDEEVLRLLYEEAKGNVLAARYPCDVEDCEALGALVCRVQLGPYQPGRPAACDLREKLDSFLPAHLCKRGQSLFAALRGRGARAGPGEQGLLNAYRQVQEVSSDGGCEAALGTHYRAYLLKCHELPFYGCAFFHGEVDKPAQGFLHRGGRKPVSVAISLEGVHVIDSREKHVLLGLRFQELSWDHTSPEEEEPILWLEFDGDSEGTPVNKLLKIYSKQAELMSSLIEYCIELSQAAEPAGPQDSATGSPSDPSSSLAPVQRPKLRRQGSVVSSRIQHLSTIDYVEDGKGIRRVKPKRTTSFFSRQLSLGQGSYTVVQPGDSLEQG
